PubChem BioAssay AID1224830 – NIAID, 2016

Screen: 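Regulators of TLR4 signalling towards TNF-alpha in macrophage-like cells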 (primary screen)
Cells: human THP-1 monocytic leukaemia cells, TNF dual-luciferase reporter clone, PMA-differentiated to macrophage-like cells
Reagents: siRNA pool against human genes, 50 nM
Time to read-out: LPS for 4 h, given about 3 days after siRNA transfection
Challenge: bacterial LPS (TLR4 ligand), 10 ng/ml
Detection: 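TNF firefly reporter luminescence divided by renilla, normalised to the plate median, then turned into a robust z-score for each replicate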
Direction: TNF reporter robust z-score: higher = stronger TNF reporter response to LPS
Call rule: 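a well is active when its z-score exceeds 2.8 or falls below -1.5; control wells carry no call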
The whole screen tested about 18,000 reagents; this is a part drawn at random. Over the whole deposit, about 2,900 (16%) got an active call. 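Calls are made per well; low scores hint the gene aids the LPS response, high scores that it dampens it.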 The numbers tell different reagents against one gene apart. Repeated entries: four replicate wells of each siRNA pool.

| Target gene | reagent | TNF reporter robust z-score | Outcome |
| --- | --- | --- | --- |
| RPAP2 (RNA polymerase II associated protein 2) | 1 | -1.59 | active |
| RPAP2 (RNA polymerase II associated protein 2) | 1 | -1.67 | active |
| RPAP2 (RNA polymerase II associated protein 2) | 1 | -0.94 | inactive |
| RPAP2 (RNA polymerase II associated protein 2) | 1 | -0.97 | inactive |
| CACHD1 (cache domain containing 1) | 1 | -0.09 | inactive |
| CACHD1 (cache domain containing 1) | 1 | 0.32 | inactive |
| CACHD1 (cache domain containing 1) | 1 | 0.13 | inactive |
| CACHD1 (cache domain containing 1) | 1 | 0.24 | inactive |
| NFKB1 (nuclear factor kappa B subunit 1) | 1 | 4.18 | active |
| NFKB1 (nuclear factor kappa B subunit 1) | 1 | -0.46 | inactive |
| NFKB1 (nuclear factor kappa B subunit 1) | 1 | -0.49 | inactive |
| NFKB1 (nuclear factor kappa B subunit 1) | 1 | -0.8 | inactive |
| ST3GAL2 (ST3 beta-galactoside alpha-2,3-sialyltransferase 2) | 1 | -1.78 | active |
| ST3GAL2 (ST3 beta-galactoside alpha-2,3-sialyltransferase 2) | 1 | -0.59 | inactive |
| ST3GAL2 (ST3 beta-galactoside alpha-2,3-sialyltransferase 2) | 1 | -1.18 | inactive |
| ST3GAL2 (ST3 beta-galactoside alpha-2,3-sialyltransferase 2) | 1 | -0.47 | inactive |
| LEMD3 (LEM domain containing 3) | 1 | -0.8 | inactive |
| LEMD3 (LEM domain containing 3) | 1 | -0.57 | inactive |
| LEMD3 (LEM domain containing 3) | 1 | -1.21 | inactive |
| LEMD3 (LEM domain containing 3) | 1 | -0.76 | inactive |
| SPATA31A1 (SPATA31 subfamily A member 1) | 1 | 1.19 | inactive |
| SPATA31A1 (SPATA31 subfamily A member 1) | 1 | 1.15 | inactive |
| SPATA31A1 (SPATA31 subfamily A member 1) | 1 | 0.16 | inactive |
| SPATA31A1 (SPATA31 subfamily A member 1) | 1 | -0.31 | inactive |
| SPATA31A1 (SPATA31 subfamily A member 1) | 2 | -0.63 | inactive |
| SPATA31A1 (SPATA31 subfamily A member 1) | 2 | -0.19 | inactive |
| SPATA31A1 (SPATA31 subfamily A member 1) | 2 | 1.43 | inactive |
| SPATA31A1 (SPATA31 subfamily A member 1) | 2 | 0.89 | inactive |
| NKAIN1 (sodium/potassium transporting ATPase interacting 1) | 1 | -1.32 | inactive |
| NKAIN1 (sodium/potassium transporting ATPase interacting 1) | 1 | -0.63 | inactive |
| NKAIN1 (sodium/potassium transporting ATPase interacting 1) | 1 | -1.6 | active |
| NKAIN1 (sodium/potassium transporting ATPase interacting 1) | 1 | 0.1 | inactive |
| GTF3C5 (general transcription factor IIIC subunit 5) | 1 | 1.74 | inactive |
| GTF3C5 (general transcription factor IIIC subunit 5) | 1 | 1.15 | inactive |
| GTF3C5 (general transcription factor IIIC subunit 5) | 1 | 1.13 | inactive |
| GTF3C5 (general transcription factor IIIC subunit 5) | 1 | 2.05 | inactive |
| KHDRBS2 | 1 | 0.3 | inactive |
| KHDRBS2 | 1 | 1.39 | inactive |
| KHDRBS2 | 1 | 1.11 | inactive |
| KHDRBS2 | 1 | 1.91 | inactive |
| GNAO1 (G protein subunit alpha o1) | 1 | -0.89 | inactive |
| GNAO1 (G protein subunit alpha o1) | 1 | -0.25 | inactive |
| GNAO1 (G protein subunit alpha o1) | 1 | -0.95 | inactive |
| GNAO1 (G protein subunit alpha o1) | 1 | -0.93 | inactive |
| GRB7 (growth factor receptor bound protein 7) | 1 | 0.53 | inactive |
| GRB7 (growth factor receptor bound protein 7) | 1 | 1.2 | inactive |
| GRB7 (growth factor receptor bound protein 7) | 1 | 0.71 | inactive |
| GRB7 (growth factor receptor bound protein 7) | 1 | 1.05 | inactive |
| GFI1 (growth factor independent 1 transcriptional repressor) | 1 | -0.26 | inactive |
| GFI1 (growth factor independent 1 transcriptional repressor) | 1 | 0.26 | inactive |
| GFI1 (growth factor independent 1 transcriptional repressor) | 1 | 0.34 | inactive |
| GFI1 (growth factor independent 1 transcriptional repressor) | 1 | 0.55 | inactive |
| SUN1 (Sad1 and UNC84 domain containing 1) | 1 | -1.39 | inactive |
| SUN1 (Sad1 and UNC84 domain containing 1) | 1 | -1.11 | inactive |
| SUN1 (Sad1 and UNC84 domain containing 1) | 1 | -1.51 | active |
| SUN1 (Sad1 and UNC84 domain containing 1) | 1 | -0.83 | inactive |
| SLC7A3 | 1 | 3.59 | active |
| SLC7A3 | 1 | 0.69 | inactive |
| SLC7A3 | 1 | 0.06 | inactive |
| SLC7A3 | 1 | -0.8 | inactive |
| ALKBH5 (alkB homolog 5, RNA demethylase) | 1 | 1.12 | inactive |
| ALKBH5 (alkB homolog 5, RNA demethylase) | 1 | 0.44 | inactive |
| ALKBH5 (alkB homolog 5, RNA demethylase) | 1 | 0.51 | inactive |
| ALKBH5 (alkB homolog 5, RNA demethylase) | 1 | 2.34 | inactive |
| TRPC4 | 1 | 1.78 | inactive |
| TRPC4 | 1 | 1.22 | inactive |
| TRPC4 | 1 | -0.37 | inactive |
| TRPC4 | 1 | 1.58 | inactive |

Entries above whose gene name starts with C or c:
| Target gene | reagent | TNF reporter robust z-score | Outcome |
| --- | --- | --- | --- |
| CACHD1 (cache domain containing 1) | 1 | -0.09 | inactive |
| CACHD1 (cache domain containing 1) | 1 | 0.32 | inactive |
| CACHD1 (cache domain containing 1) | 1 | 0.13 | inactive |
| CACHD1 (cache domain containing 1) | 1 | 0.24 | inactive |

The listing continues:
| Target gene | reagent | TNF reporter robust z-score | Outcome |
| --- | --- | --- | --- |
| S100P (S100 calcium binding protein P) | 1 | -0.54 | inactive |
| S100P (S100 calcium binding protein P) | 1 | -0.51 | inactive |
| S100P (S100 calcium binding protein P) | 1 | -0.52 | inactive |
| S100P (S100 calcium binding protein P) | 1 | -0.94 | inactive |
| CLEC12A (C-type lectin domain family 12 member A) | 1 | 1.22 | inactive |
| CLEC12A (C-type lectin domain family 12 member A) | 1 | -0.07 | inactive |
| CLEC12A (C-type lectin domain family 12 member A) | 1 | -0.51 | inactive |
| CLEC12A (C-type lectin domain family 12 member A) | 1 | 1.35 | inactive |
| TSPAN15 (tetraspanin 15) | 1 | 1.13 | inactive |
| TSPAN15 (tetraspanin 15) | 1 | 0.41 | inactive |
| TSPAN15 (tetraspanin 15) | 1 | 0.69 | inactive |
| TSPAN15 (tetraspanin 15) | 1 | 1.51 | inactive |
| STARD3NL (STARD3 N-terminal like) | 1 | -0.65 | inactive |
| STARD3NL (STARD3 N-terminal like) | 1 | -0.13 | inactive |
| STARD3NL (STARD3 N-terminal like) | 1 | -0.37 | inactive |
| STARD3NL (STARD3 N-terminal like) | 1 | -0.14 | inactive |
| CLEC18A (C-type lectin domain family 18 member A) | 1 | 0.08 | inactive |
| CLEC18A (C-type lectin domain family 18 member A) | 1 | 1.08 | inactive |
| CLEC18A (C-type lectin domain family 18 member A) | 1 | 1.33 | inactive |
| CLEC18A (C-type lectin domain family 18 member A) | 1 | -0.03 | inactive |
| NINJ2 (ninjurin 2) | 1 | 0.36 | inactive |
| NINJ2 (ninjurin 2) | 1 | 1.29 | inactive |
| NINJ2 (ninjurin 2) | 1 | 0.74 | inactive |
| NINJ2 (ninjurin 2) | 1 | 2.62 | inactive |
| MMP28 (matrix metallopeptidase 28) | 1 | -0.64 | inactive |
| MMP28 (matrix metallopeptidase 28) | 1 | -0.53 | inactive |
| MMP28 (matrix metallopeptidase 28) | 1 | -0.79 | inactive |
| MMP28 (matrix metallopeptidase 28) | 1 | 1.11 | inactive |
| ASB9 (ankyrin repeat and SOCS box containing 9) | 1 | 0.22 | inactive |
| ASB9 (ankyrin repeat and SOCS box containing 9) | 1 | 0.28 | inactive |
| ASB9 (ankyrin repeat and SOCS box containing 9) | 1 | 3.89 | active |
| ASB9 (ankyrin repeat and SOCS box containing 9) | 1 | 2.59 | inactive |
| LRRTM1 (leucine rich repeat transmembrane neuronal 1) | 1 | 0.69 | inactive |
| LRRTM1 (leucine rich repeat transmembrane neuronal 1) | 1 | 1.82 | inactive |
| LRRTM1 (leucine rich repeat transmembrane neuronal 1) | 1 | 1.29 | inactive |
| LRRTM1 (leucine rich repeat transmembrane neuronal 1) | 1 | 1.81 | inactive |
| TOM1L1 (target of myb1 like 1 membrane trafficking protein) | 1 | 4.27 | active |
| TOM1L1 (target of myb1 like 1 membrane trafficking protein) | 1 | 1.14 | inactive |
| TOM1L1 (target of myb1 like 1 membrane trafficking protein) | 1 | 0.16 | inactive |
| TOM1L1 (target of myb1 like 1 membrane trafficking protein) | 1 | 0.5 | inactive |
| ATP11C (ATPase phospholipid transporting 11C (ATP11C blood group)) | 1 | 1.13 | inactive |
| ATP11C (ATPase phospholipid transporting 11C (ATP11C blood group)) | 1 | 3.64 | active |
| ATP11C (ATPase phospholipid transporting 11C (ATP11C blood group)) | 1 | -0.01 | inactive |
| ATP11C (ATPase phospholipid transporting 11C (ATP11C blood group)) | 1 | 3.6 | active |
